Source: PubChem BioAssay AID540256 (National Center for Advancing Translational Sciences (NCATS), 2011)
Hit rate of the full screen: of about 300,000 compounds, about 3,700 (1.2%) were called active. Inconclusive results, whose numbers are uncertain, are shown with a selection of clear calls. Calls follow the shape of the full dose curve; tested in HEK293 cells. Potencies beside an inconclusive call are fits to weak or partial responses and may not hold up.

Assay: qHTS for Inhibitors of binding or entry into cells for Lassa Virus; also: nearly all actives have a fitted effect of over 50% in size
Details: Lassa virus pseudotype entry inhibition, cell reporter; activity change, negative = inhibition: at 37.9 µM (top of the series) unless noted
% is scaled to controls: 0 for no effect and ±100 for the full control effect; potency is read from the fitted curve at half-maximal effect.

Q: Which Potency does the source give for `CCOC(=O)C1CCN(C(=O)CNC(=O)Cn2c(C)cc3ccccc3c2=O)CC1` here?
A: Its Potency is “inactive”.

Q: For `COC(CNC(=O)c1ccc2c(c1)ncn2-c1ccc(F)c(F)c1)OC`, which Potency is on record?
A: The Potency was “inactive”.

Q: For `O=C(/C=C/c1ccc2c(c1)OCO2)N1CCOCC1`, which Potency is on record?
A: Its Potency is “inactive”.

Q: Which Potency does the source give for `CC(C)C(NC(=O)c1ccco1)C(=O)OCc1cc([N+](=O)[O-])cc2c1OCOC2` (stereo unspecified) here?
A: Its Potency is inconclusive: 6.31 µM [activator, single point].

Q: For `CCOc1ccccc1CNC(=O)CN1C(=O)CSc2ccc(S(=O)(=O)N3CCOCC3)cc21`, which Potency is on record?
A: Its Potency is inconclusive: 35.5 µM [activator, single point].

Q: With `COc1ccc(/C=C2\SC(=O)N(CCNC(=O)Cn3cnnn3)C2=O)cc1` as the compound, how does the Potency read?
A: Its Potency is inconclusive: 2.31 µM [activator, partial curve].

Q: Which Potency does the source give for `CCc1ccc(-c2cc(C(=O)Nn3cnnc3)c3ccccc3n2)cc1` here?
A: The Potency was active: 1.3 µM.

Q: With `CC1CN(C(=O)c2cccc(Oc3ccccc3)c2)CC(C)O1` (stereo unspecified) as the compound, how does the Potency read?
A: Its Potency is “inactive”.

Q: With `COc1ccc(Nc2nc(NCC3CCCO3)c3ccccc3n2)c(OC)c1` (stereo unspecified) as the compound, how does the Potency read?
A: The Potency was “inactive”.

Q: Which Potency does the source give for `O=C(Nc1ccccc1N1CCN(C(=O)c2ccccc2)CC1)c1cc(Br)ccc1Cl` here?
A: The Potency was inconclusive: 29.1 µM [inhibitor, single point].

Q: With `CCCCCn1c(=O)[nH]c2cc(C(=O)NCCN3CCC(C)CC3)ccc2c1=O` as the compound, how does the Potency read?
A: The Potency was inconclusive: 6.31 µM [inhibitor, single point].

Q: With `COc1ccc(N(CC(=O)N/N=C/c2cccs2)S(=O)(=O)c2ccc(OC)c(OC)c2)cc1` as the compound, how does the Potency read?
A: Its Potency is inconclusive: 1.64 µM [inhibitor, partial curve, poor fit].

Q: Which Potency does the source give for `Cc1ccc2nc(SC(C(=O)Nc3ccc(F)cc3)c3ccccc3)[nH]c2c1` (stereo unspecified) here?
A: Its Potency is “inactive”.

Q: With `CC(C)N(Cc1ccco1)/N=C/c1c(O)n(Cc2ccccc2)c(=O)[nH]c1=O` as the compound, how does the Potency read?
A: Its Potency is inconclusive: 4.47 µM [inhibitor, full curve, poor fit].

Q: Which Potency does the source give for `COC(=O)c1cc2oc3ccccc3c2n1CC(=O)Nc1ccccc1OC` here?
A: The Potency was “inactive”.

Q: With `COc1cc(S(=O)(=O)N(C)C)ccc1Br` as the compound, how does the Potency read?
A: The Potency was “inactive”.

Q: Which Potency does the source give for `CCc1nc(SCc2ccccc2)n[nH]1` here?
A: Its Potency is inconclusive: 2.24 µM [inhibitor, full curve].

Q: For `Cc1cccc(Nc2c(-c3cccs3)nc3nc(C)cc(C)n23)c1`, which Potency is on record?
A: The Potency was “inactive”.

Q: With `Cc1noc(C)c1COc1ccc(C(=O)NNC(=O)c2ccccc2)cc1` as the compound, how does the Potency read?
A: Its Potency is inconclusive: 5.62 µM [inhibitor, partial curve, poor fit].

Q: For `CC(C)(C)OC(=O)N1CCC(c2c(C(=O)NCc3ccccc3)cnn2-c2ccccc2)CC1`, which Potency is on record?
A: The Potency was inconclusive: 2.24 µM [inhibitor, full curve, poor fit].

Q: For `CC1CCC(NC(=O)c2ccc3c(c2)N(Cc2ccccc2)C(=O)c2ccccc2S3(=O)=O)CC1` (stereo unspecified), which Potency is on record?
A: Its Potency is “inactive”.

Q: For `CN(C)c1ccc(C(=O)N2CCCC(N3CCN(Cc4ccc5c(c4)OCO5)CC3)C2)cc1` (stereo unspecified), which Potency is on record?
A: The Potency was “inactive”.

Q: Which Potency does the source give for `Cc1cc(/C=N/Nc2nc(N3CCOCC3)nc(N3CCOCC3)n2)c(C)n1-c1ccccc1` here?
A: Its Potency is inconclusive: 3.55 µM [inhibitor, partial curve, poor fit].

Q: For `COc1ccc(-c2csc(Nc3ccc(S(N)(=O)=O)cc3)n2)cc1`, which Potency is on record?
A: The Potency was inconclusive: 23.1 µM [inhibitor, partial curve, poor fit].

Q: With `O=C(NCc1ccco1)C(=O)NCC1OCCN1C(=O)c1ccc(Cl)cc1` (stereo unspecified) as the compound, how does the Potency read?
A: Its Potency is “inactive”.

Q: With `CCOC(=O)c1c(C)nc(-c2ccccc2)nc1N` as the compound, how does the Potency read?
A: Its Potency is inconclusive: 3.66 µM [activator, single point].

Q: With `COc1cccc(C(=O)Nc2ccc(NC(=O)c3ccco3)cn2)c1` as the compound, how does the Potency read?
A: The Potency was “inactive”.

Q: With `O=C(CN1C(=O)c2ccccc2C1=O)Oc1ccc(Cl)cc1` as the compound, how does the Potency read?
A: The Potency was “inactive”.

Q: For `COCc1cc(C)nc2sc(C(=O)Nc3ccc(OC(F)(F)F)cc3)c(N)c12`, which Potency is on record?
A: The Potency was inconclusive: 6.31 µM [inhibitor, single point].

Q: Which Potency does the source give for `COc1cccc(C(=O)NCCC2=CCCCC2)c1OC` here?
A: The Potency was “inactive”.

Q: For `COc1ccc(C)cc1NC(=O)Cn1c(=O)nc(-c2ccccc2F)c2cc(Cl)ccc21`, which Potency is on record?
A: The Potency was “inactive”.

Q: With `COc1cc(C#N)c(N=C(SCC#N)N2CCOCC2)cc1OC` as the compound, how does the Potency read?
A: Its Potency is inconclusive: 7.08 µM [inhibitor, partial curve, poor fit].

Q: Which activity change, negative = inhibition does the source give for `Cc1nn(-c2ccccc2)c2nc(N)c(C(N)=O)cc12` here?
A: The activity change, negative = inhibition was inconclusive: 24.2% [activator].

Q: With `Cc1cccc(C(=O)N2CCc3cc(CNC(=O)c4ccc(Br)o4)ccc32)c1` as the compound, how does the Potency read?
A: The Potency was inconclusive: 7.94 µM [inhibitor, partial curve, poor fit].

Q: With `CC(C)NC(=O)c1ccc(C(C)C)cc1` as the compound, how does the Potency read?
A: Its Potency is inconclusive: 11.2 µM [activator, partial curve, poor fit].

Q: For `CCC(CC)C(=O)Nc1cccc(C(=O)Nc2ccc(S(=O)(=O)Nc3ccc(C)cc3)cc2)c1`, which Potency is on record?
A: Its Potency is inconclusive: 20.6 µM [inhibitor, single point].

Q: Which Potency does the source give for `COc1ccc(N(CC(=O)NCC2CCCO2)C(=O)CCC(=O)Nc2nccs2)c(OC)c1` (stereo unspecified) here?
A: The Potency was inconclusive: 1.12 µM [inhibitor, single point].

Q: For `CCN1C(=O)c2cccc3c(NC(=O)c4ccc5c(c4)OCCO5)ccc1c23`, which Potency is on record?
A: Its Potency is “inactive”.

Q: For `CCSc1nc2ccc(C)cc2cc1C#N`, which Potency is on record?
A: The Potency was inconclusive: 5.62 µM [inhibitor, single point].

Q: For `COc1ccc(NC(=O)CN(C)C(=O)CC2CCCC2)cc1`, which Potency is on record?
A: The Potency was “inactive”.

Q: Which Potency does the source give for `COc1ccc(CNC(=O)Cn2c(=O)nc(-c3ccccc3F)c3cc(Cl)ccc32)cc1OC` here?
A: The Potency was inconclusive: 35.5 µM [inhibitor, single point].

Q: With `COc1cc(/C=C2\SC(=S)N(Nc3ccccc3)C2=O)ccc1O` as the compound, how does the Potency read?
A: Its Potency is inconclusive: 0.251 µM [inhibitor, full curve, poor fit].

Q: With `Cc1c(Cl)ccc2c1NC(=O)[C@]21[C@@H]2C(=O)N(Cc3ccccc3)C(=O)[C@@H]2[C@@H]2CCCN21` as the compound, how does the Potency read?
A: Its Potency is “inactive”.

Q: For `Cc1ccnc(NC(=O)c2cccc(S(=O)(=O)N3CCCc4ccccc43)c2)c1`, which Potency is on record?
A: The Potency was inconclusive: 28.2 µM [inhibitor, single point].

Q: Which Potency does the source give for `CCOc1ccc(C(C)=O)cc1CN1C(=O)c2ccccc2S1(=O)=O` here?
A: Its Potency is inconclusive: 3.98 µM [activator, single point].

Q: With `CCOc1ccc(CCNC(=O)Cc2ccc(S(=O)(=O)N3CCOCC3)s2)cc1OCC` as the compound, how does the Potency read?
A: The Potency was “inactive”.
